Results as given in paper PMC7819943, “Rice protein-binding microarrays: a tool to detect cis-acting elements near promoter regions in rice”.
The other results are listed elsewhere or left out.

Protein sequences, listed by entry. Tags and fused reporters are not part of them.
UniProt Q0JBA9, entry or part of it: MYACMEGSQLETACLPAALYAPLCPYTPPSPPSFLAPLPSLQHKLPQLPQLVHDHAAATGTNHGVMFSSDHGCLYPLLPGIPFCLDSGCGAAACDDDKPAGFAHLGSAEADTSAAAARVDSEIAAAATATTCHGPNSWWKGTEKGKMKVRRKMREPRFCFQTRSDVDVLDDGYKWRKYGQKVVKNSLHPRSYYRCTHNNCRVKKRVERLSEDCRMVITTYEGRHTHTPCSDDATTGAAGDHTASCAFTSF

target: OsWRKY34 (Oryza sativa, UniProt Q0JBA9 1-250); assay: protein-binding microarray (RPBM); PBS, 2% BSA, 51.3 ng/ul salmon testes DNA, 50 uM zinc acetate, 200 nM TF, 25 C, 1 h; high values mean tight binding; details: protein: recombinant; tags: N-terminal polyhistidine and DsRed monomer fusion (pET32a); label: CyDye5-dUTP incorporated in the synthesized complementary strand; 3' TTTTT single-stranded linker to array surface; dsDNA, one strand shown
In short: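 Binding signal here means per-feature fluorescence intensity in arbitrary units. The values were read on an Axon 4000B scanner after a custom Agilent array, double-stranded by primer extension with Cy5-dUTP, was incubated with 200 nM protein at 25 °C for 1 h in PBS with 2% BSA, salmon testes DNA and 50 µM zinc acetate, then washed. The proteins were transcription factors with an N-terminal polyhistidine tag and DsRed, expressed in E. coli BL21-CodonPlus and purified on Ni–NTA.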

Row | Sequence | binding signal
1 | TTACTTTGTTGATTCTTTCCTTTGTTTTTTTTTTCTTTTCCGGAGTCACCTAGTGCAG | 8510 fluorescence intensity (a.u.)
2 | ATCTGCCCTATCTGGTCCCACCCATCAGTGGCCCACACCTCGGAGTCACCTAGTGCAG | 8700 fluorescence intensity (a.u.)
3 | GCTAACATCACCACAAACAACACCATTGTTATGCTCTTAACGGAGTCACCTAGTGCAG | 8500 fluorescence intensity (a.u.)
4 | GATTAGTTCTGTTACTGCATGTACTTTCTTTTATCTATCTCGGAGTCACCTAGTGCAG | 9420 fluorescence intensity (a.u.)
5 | TTTTCAAATTTGTGTTTTTACCATTTCCCTCTGTCCGTAACGGAGTCACCTAGTGCAG | 8800 fluorescence intensity (a.u.)
6 | CCCACGCCGCCGCCGCCGCCACGTCCGCCTTTTCCCCGCTCGGAGTCACCTAGTGCAG | 8040 fluorescence intensity (a.u.)
7 | TCTTTCTAGTATTCTGCATTCCATTTAGGTTTCTTTTCCACGGAGTCACCTAGTGCAG | 9360 fluorescence intensity (a.u.)
8 | ACCGTGCATTCCAGTGAGGCCCTTATCTTTCTTGTTATAGCGGAGTCACCTAGTGCAG | 9600 fluorescence intensity (a.u.)
9 | ATCGCGCATCCACTCCACACCACACGCTTCACTGGTTCCGCGGAGTCACCTAGTGCAG | 9180 fluorescence intensity (a.u.)
10 | AAAACCTCGTTTTTCACGCACACGTTTTCCGAACTTTTCACGGAGTCACCTAGTGCAG | 10100 fluorescence intensity (a.u.)
11 | GGTGGGGCTGTTAGTTAATTATAATGGCTTAATCCAGAGACGGAGTCACCTAGTGCAG | 11800 fluorescence intensity (a.u.)
12 | TATATATATATATATATATATATATATGTGTGTGTGTGTTCGGAGTCACCTAGTGCAG | 14600 fluorescence intensity (a.u.)
13 | AAAGCCTGTGGCCACATCTTATCTTTTCCATCCTTTGCATCGGAGTCACCTAGTGCAG | 8040 fluorescence intensity (a.u.)
14 | GTGTCACAATTTTTAAAATGTTTCATTTGCTGATTTTTTTCGGAGTCACCTAGTGCAG | 8320 fluorescence intensity (a.u.)
15 | GTTGTTCTGTACCTTCTTGCTTGTTACCATGGCTGTTATCCGGAGTCACCTAGTGCAG | 10500 fluorescence intensity (a.u.)
16 | TACCCGTGTAATCAATCACCTCTCTTTTTATTTTTTAATACGGAGTCACCTAGTGCAG | 8400 fluorescence intensity (a.u.)
17 | ATCTTCTGCCAGTATTGCCGGTCCAAAAAGCCCACATGAGCGGAGTCACCTAGTGCAG | 8210 fluorescence intensity (a.u.)
18 | ATTTTATAACATTAGACGTAACTGAACTTGTGTGCATTGCCGGAGTCACCTAGTGCAG | 8030 fluorescence intensity (a.u.)
19 | ACTCTTACTCTGATCTCCACAATTTCCAGCGATCCTGTAACGGAGTCACCTAGTGCAG | 9170 fluorescence intensity (a.u.)
20 | AGCCGACGCGTGCGCTGCGCTCCCATTTTGCGTCGACGCCCGGAGTCACCTAGTGCAG | 8240 fluorescence intensity (a.u.)
21 | ATTTTCATTTGGTTGGTGTGGTTATCTCTTTTTTCATTTACGGAGTCACCTAGTGCAG | 20700 fluorescence intensity (a.u.)
22 | ATTAACAGCCTAGCTAGCTAGTGATCAGTGTTGACCGTTGCGGAGTCACCTAGTGCAG | 8200 fluorescence intensity (a.u.)
23 | TGACAATGGTGTTGCATCTCCAAAGCTGCAGAAACAAACACGGAGTCACCTAGTGCAG | 48300 fluorescence intensity (a.u.)

Given field by field: entries from further up.
GATTAGTTCTGTTACTGCATGTACTTTCTTTTATCTATCTCGGAGTCACCTAGTGCAG
  binding signal: 9420 fluorescence intensity (a.u.)
TTTTCAAATTTGTGTTTTTACCATTTCCCTCTGTCCGTAACGGAGTCACCTAGTGCAG
  binding signal: 8800 fluorescence intensity (a.u.)
